{"source": "PubChem BioAssay AID248", "about": "(DTP/NCI, 2004)", "test_system": "L1210 leukemia ip in BDF1 mice, survival T/C", "assay": "NCI In Vivo Anticancer Drug Screen. Data for tumor model L1210 Leukemia (intraperitoneal) in B6D2F1 (BDF1) mice", "details": "T/C endpoint: mean survival time, higher T/C = longer survival", "key": {"[1]": {"details": "dose: 100.0 mg/kg/injection, schedule: Q01DX009 (ip), vehicle: saline"}, "[2]": {"details": "dose: 100.0 mg/kg/injection, schedule: Q04DX003 (ip), vehicle: saline"}, "[3]": {"details": "dose: 200.0 mg/kg/injection, schedule: Q01DX009 (ip), vehicle: saline"}, "[4]": {"details": "dose: 300.0 mg/kg/injection, schedule: Q01DX001 (ip), vehicle: saline"}, "[5]": {"details": "dose: 400.0 mg/kg/injection, schedule: Q01DX009 (ip), vehicle: saline"}, "[6]": {"details": "dose: 400.0 mg/kg/injection, schedule: Q04DX003 (ip), vehicle: saline"}, "[7]": {"details": "dose: 400.0 mg/kg/injection, schedule: Q04DX003 (ip), vehicle: saline with Tween-80"}}, "note": "The list does not hold the whole screen: it is rich in T/C values a quarter to a half above the control, in often repeated tests (any T/C) and in doses without a T/C. Further doses and runs are listed elsewhere. T/C: endpoint of the treated group in % of that of the vehicle group. Some entries give survivors of the animals treated and no T/C: the source files T/C as zero there, which appears to mark a toxic dose or a test without result, not a measured value. Some survivor counts are full or nearly so, which does not show that the dose was tolerated: survival well below the control is almost never listed, so the zero probably covers shortened survival too. Survivors were counted at the toxicity check, usually on the fifth day, unless a day is given; later deaths do not show. Schedule codes are those of the source, taken here to give the interval after Q, in days (D) or hours (H), and the number of doses after X. Some doses were run more than once; their values stand side by side, smallest first. Where survival is the endpoint, the PubChem record calls one and a half times the control and up active, and a quarter to a half above the control has no call in these data; cut-offs in other NCI protocols can differ. Some T/C values carry the count of animals alive at the toxicity check (mostly the fifth day); where none is given, no animal had died by that day.", "data": [{"smiles": "CCC(=O)c1ccc2c(c1)N(C(C)CN(C)C)c1ccccc1S2", "note": "(configuration not stated)", "values": [{"measurement": "survivor count", "setting": "dose: 25.0 mg/kg/injection, schedule: Q03HX024 (ip), vehicle: saline", "value": "2 of 6"}, {"measurement": "T/C", "setting": "dose: 50.0 mg/kg/injection, schedule: Q01DX009 (ip), vehicle: saline", "value": "129 % of control [5 of 6 alive]"}, {"measurement": "survivor count", "setting": "[1]", "value": "3 of 6 and 6 of 6"}, {"measurement": "T/C", "setting": "[2]", "value": "130 % of control"}, {"measurement": "survivor count", "setting": "[2]", "value": "3 of 6"}, {"measurement": "survivor count", "setting": "[3]", "value": "0 of 6"}, {"measurement": "survivor count", "setting": "dose: 200.0 mg/kg/injection, schedule: Q04DX003 (ip), vehicle: saline", "value": "0 of 4"}, {"measurement": "survivor count", "setting": "[4]", "value": "0 of 6"}, {"measurement": "survivor count", "setting": "[5]", "value": "0 of 6"}, {"measurement": "survivor count", "setting": "[6]", "value": "0 of 4"}]}, {"smiles": "CCCC(CCN(C)C)(CNC(=O)CN(CC)CC)c1cccc2ccccc12", "note": "(configuration not stated)", "values": [{"measurement": "survivor count", "setting": "[3]", "value": "4 of 6"}, {"measurement": "survivor count", "setting": "[5]", "value": "0 of 6"}]}, {"smiles": "COc1ccc(CCNC2CC3CCC2(C)C3(C)C)cc1OC", "note": "(configuration not stated)", "values": [{"measurement": "survivor count", "setting": "dose: 400.0 mg/kg/injection, schedule: Q01DX001 (ip), vehicle: saline", "value": "0 of 3"}]}, {"smiles": "O=C(O)C(Cl)C(=O)O", "values": [{"measurement": "survivor count", "setting": "dose: 75.0 mg/kg/injection, schedule: Q04DX003 (ip), vehicle: saline", "value": "3 of 6"}, {"measurement": "survivor count", "setting": "dose: 150.0 mg/kg/injection, schedule: Q01DX001 (ip), vehicle: saline", "value": "0 of 6"}, {"measurement": "survivor count", "setting": "[4]", "value": "1 of 6"}]}, {"smiles": "CCCCn1cnc2ccc3[nH]c(C)nc3c2c1=O", "values": [{"measurement": "survivor count", "setting": "dose: 50.0 mg/kg/injection, schedule: Q01DX001 (ip), vehicle: carboxymethylcellulose (CMC)", "value": "1 of 6"}]}, {"smiles": "O=C(O)C(=O)c1ccccc1", "values": [{"measurement": "survivor count", "setting": "[6]", "value": "3 of 6"}]}, {"smiles": "O=S1(=O)CC2(N3CCCCC3)CCCCC21", "note": "(configuration not stated)", "values": [{"measurement": "survivor count", "setting": "dose: 2.5 mg/kg/injection, schedule: Q01DX009 (ip), vehicle: saline", "value": "6 of 6"}, {"measurement": "survivor count", "setting": "[1]", "value": "1 of 6"}, {"measurement": "survivor count", "setting": "[3]", "value": "0 of 6"}, {"measurement": "survivor count", "setting": "[5]", "value": "0 of 6"}]}, {"smiles": "CCN(CC)CCOc1cccc(C)c1C", "values": [{"measurement": "survivor count", "setting": "dose: 200.0 mg/kg/injection, schedule: Q04DX003 (ip), vehicle: saline with Tween-80", "value": "0 of 6"}, {"measurement": "survivor count", "setting": "[7]", "value": "0 of 6"}]}, {"smiles": "NP(Cl)(c1ccccc1)(c1ccccc1)c1ccccc1", "values": [{"measurement": "survivor count", "setting": "dose: 1.56 mg/kg/injection, schedule: Q04DX003 (ip), vehicle: Klucel (hydroxypropylcellulose) (HPC)", "value": "0 of 6"}, {"measurement": "survivor count", "setting": "dose: 3.13 mg/kg/injection, schedule: Q04DX003 (ip), vehicle: Klucel (hydroxypropylcellulose) (HPC)", "value": "0 of 6"}, {"measurement": "survivor count", "setting": "dose: 6.25 mg/kg/injection, schedule: Q04DX003 (ip), vehicle: Klucel (hydroxypropylcellulose) (HPC)", "value": "0 of 6"}, {"measurement": "survivor count", "setting": "dose: 12.5 mg/kg/injection, schedule: Q04DX003 (ip), vehicle: Klucel (hydroxypropylcellulose) (HPC)", "value": "0 of 6"}, {"measurement": "survivor count", "setting": "dose: 25.0 mg/kg/injection, schedule: Q04DX003 (ip), vehicle: Klucel (hydroxypropylcellulose) (HPC)", "value": "0 of 6"}, {"measurement": "survivor count", "setting": "dose: 50.0 mg/kg/injection, schedule: Q04DX003 (ip), vehicle: Klucel (hydroxypropylcellulose) (HPC)", "value": "0 of 6"}, {"measurement": "survivor count", "setting": "dose: 100.0 mg/kg/injection, schedule: Q04DX003 (ip), vehicle: Klucel (hydroxypropylcellulose) (HPC)", "value": "0 of 6"}, {"measurement": "survivor count", "setting": "dose: 200.0 mg/kg/injection, schedule: Q04DX003 (ip), vehicle: Klucel (hydroxypropylcellulose) (HPC)", "value": "0 of 6"}, {"measurement": "survivor count", "setting": "dose: 400.0 mg/kg/injection, schedule: Q04DX003 (ip), vehicle: Klucel (hydroxypropylcellulose) (HPC)", "value": "0 of 6"}]}, {"smiles": "COc1cc(/C=N\\NC(=O)OC(C)(C)C)cc(OC)c1OC", "values": [{"measurement": "survivor count", "setting": "[7]", "value": "6 of 6"}]}, {"smiles": "CCCCCCC(=O)[O][Hg][c]1ccccc1", "values": [{"measurement": "survivor count", "setting": "dose: 75.0 mg/kg/injection, schedule: Q01DX001 (ip), vehicle: other", "value": "2 of 6"}, {"measurement": "survivor count", "setting": "dose: 150.0 mg/kg/injection, schedule: Q01DX001 (ip), vehicle: other", "value": "0 of 6"}, {"measurement": "survivor count", "setting": "dose: 300.0 mg/kg/injection, schedule: Q01DX001 (ip), vehicle: other", "value": "0 of 6"}]}, {"smiles": "CCCNCCC[P+](c1ccccc1)(c1ccccc1)c1ccccc1", "values": [{"measurement": "survivor count", "setting": "dose: 200.0 mg/kg/injection, schedule: Q04DX002 (ip), vehicle: saline", "value": "0 of 3"}, {"measurement": "survivor count", "setting": "dose: 400.0 mg/kg/injection, schedule: Q04DX002 (ip), vehicle: saline", "value": "1 of 3"}]}, {"smiles": "COC1OC2COC(c3ccccc3)OC2C(O)C1NC(C)=O", "note": "(configuration not stated)", "values": [{"measurement": "survivor count", "setting": "dose: 400.0 mg/kg/injection, schedule: Q01DX001 (ip), vehicle: Klucel (hydroxypropylcellulose) (HPC)", "value": "5 of 5"}]}, {"smiles": "Nc1ccn(CC(=O)c2cccs2)c(=O)n1", "values": [{"measurement": "survivor count", "setting": "dose: 200.0 mg/kg/injection, schedule: Q01DX009 (ip), vehicle: saline with Tween-80", "value": "0 of 6"}, {"measurement": "survivor count", "setting": "dose: 400.0 mg/kg/injection, schedule: Q01DX009 (ip), vehicle: saline with Tween-80", "value": "1 of 6"}, {"measurement": "survivor count", "setting": "[7]", "value": "2 of 6"}]}, {"smiles": "CC(C)CCCC(=O)CCCCCCC(=O)CCN(O)C(=O)C(N)CO", "note": "(configuration not stated)", "values": [{"measurement": "survivor count", "setting": "dose: 50.0 mg/kg/injection, schedule: Q01DX009 (ip), vehicle: acetone", "value": "2 of 6"}, {"measurement": "survivor count", "setting": "dose: 100.0 mg/kg/injection, schedule: Q04DX003 (ip), vehicle: acetone", "value": "6 of 6"}, {"measurement": "survivor count", "setting": "dose: 200.0 mg/kg/injection, schedule: Q01DX001 (ip), vehicle: acetone", "value": "2 of 6"}, {"measurement": "survivor count", "setting": "dose: 400.0 mg/kg/injection, schedule: Q01DX001 (ip), vehicle: acetone", "value": "0 of 6"}]}]}
